# Cell number after 72 h of treatment

Source: doi:10.1371/journal.pone.0140310, primary screening data, rounded.

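Human melanoma cell lines in 1,536-well plates were treated with a pair of drugs for 72 h, then fixed, stained and imaged. Values are the number of DAPI-stained nuclei as a percentage of the DMSO control: 100 is no effect, lower means fewer cells. Every drug was used at one fixed concentration, the higher of two screened. The file gives one value for each pair and line, without errors, so small differences may be noise.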
Only some of the drugs and lines screened are listed, without regard to their results.

Drugs:
midostaurin: CO[C@@H]1[C@H](N(C)C(=O)c2ccccc2)C[C@H]2O[C@]1(C)n1c3ccccc3c3c4c(c5c6ccccc6n2c5c31)C(=O)NC4 at 400 nM
KU-55933: O=c1cc(-c2cccc3c2Sc2ccccc2S3)oc(N2CCOCC2)c1 at 5000 nM
ABT-263: CC1(C)CCC(c2ccc(Cl)cc2)=C(CN2CCN(c3ccc(C(=O)NS(=O)(=O)c4ccc(N[C@H](CCN5CCOCC5)CSc5ccccc5)c(S(=O)(=O)C(F)(F)F)c4)cc3)CC2)C1 at 2000 nM
PF-04217903: OCCn1cc(-c2cnc3nnn(Cc4ccc5ncccc5c4)c3n2)cn1 at 5000 nM
SU6656: CN(C)S(=O)(=O)c1ccc2c(c1)/C(=C/c1cc3c([nH]1)CCCC3)C(=O)N2 at 2000 nM
CP-690550: C[C@@H]1CCN(C(=O)CC#N)C[C@@H]1N(C)c1ncnc2[nH]ccc12 at 5000 nM
pazopanib: Cc1ccc(Nc2nccc(N(C)c3ccc4c(C)n(C)nc4c3)n2)cc1S(N)(=O)=O at 2000 nM
bexarotene: C=C(c1ccc(C(=O)O)cc1)c1cc2c(cc1C)C(C)(C)CCC2(C)C at 10000 nM
sorafenib: CNC(=O)c1cc(Oc2ccc(NC(=O)Nc3ccc(Cl)c(C(F)(F)F)c3)cc2)ccn1 at 2000 nM

Results for midostaurin + sorafenib are WM3619: 63.1; COLO 829: 59.5; WM451Lu: 71.0; COLO 800: 46.5; COLO 792: 45.7.
Results for sorafenib + KU-55933 are WM3619: 96.3; COLO 829: 89.6; WM451Lu: 104; COLO 800: 102; COLO 792: 85.3.
Results for CP-690550 + SU6656 are WM3619: 89.3; COLO 829: 70.8; WM451Lu: 81.3; COLO 800: 50.0; COLO 792: 69.7.
Results for SU6656 + PF-04217903 are WM3619: 77.4; COLO 829: 72.9; WM451Lu: 64.5; COLO 800: 64.9; COLO 792: 62.7.
Results for bexarotene + SU6656 are WM3619: 90.9; COLO 829: 61.9; WM451Lu: 114; COLO 800: 68.7; COLO 792: 67.4.
Results for KU-55933 + midostaurin are WM3619: 51.1; COLO 829: 89.6; WM451Lu: 66.4; COLO 800: 28.7; COLO 792: 52.0.
Results for PF-04217903 + sorafenib are WM3619: 81.9; COLO 829: 102; WM451Lu: 101; COLO 800: 156; COLO 792: 83.0.
Results for PF-04217903 + bexarotene are WM3619: 90.8; COLO 829: 62.9; WM451Lu: 77.1; COLO 800: 141; COLO 792: 53.8.
Results for midostaurin + bexarotene are WM3619: 74.4; COLO 829: 95.0; WM451Lu: 55.1; COLO 800: 40.6; COLO 792: 53.2.
Results for KU-55933 + bexarotene are WM3619: 111; COLO 829: 86.8; WM451Lu: 77.2; COLO 800: 122; COLO 792: 90.6.
Results for pazopanib + bexarotene are WM3619: 89.8; COLO 829: 80.3; WM451Lu: 91.5; COLO 800: 89.7; COLO 792: 83.5.
Results for ABT-263 + SU6656 are WM3619: 73.7; COLO 829: 74.9; WM451Lu: 71.8; COLO 800: 37.8; COLO 792: 2.4.
Results for KU-55933 + SU6656 are WM3619: 66.3; COLO 829: 85.8; WM451Lu: 56.5; COLO 800: 54.4; COLO 792: 53.0.
Results for ABT-263 + CP-690550 are WM3619: 60.1; COLO 829: 114; WM451Lu: 85.1; COLO 800: 51.6; COLO 792: 29.2.
Results for ABT-263 + bexarotene are WM3619: 64.4; COLO 829: 61.8; WM451Lu: 84.5; COLO 800: 37.4; COLO 792: 14.1.
Results for PF-04217903 + midostaurin are WM3619: 88.5; COLO 829: 79.4; WM451Lu: 84.3; COLO 800: 57.9; COLO 792: 88.3.
Results for pazopanib + sorafenib are WM3619: 116; COLO 829: 104; WM451Lu: 101; COLO 800: 135; COLO 792: 88.1.
Results for pazopanib + KU-55933 are WM3619: 99.3; COLO 829: 91.1; WM451Lu: 86.9; COLO 800: 122; COLO 792: 81.4.
Results for ABT-263 + KU-55933 are WM3619: 70.8; COLO 829: 75.2; WM451Lu: 78.8; COLO 800: 28.3; COLO 792: 25.0.
Results for midostaurin + ABT-263 are WM3619: 51.4; COLO 829: 46.5; WM451Lu: 37.0; COLO 800: 15.3; COLO 792: 4.0.
Results for sorafenib + SU6656 are WM3619: 76.1; COLO 829: 98.4; WM451Lu: 82.5; COLO 800: 45.9; COLO 792: 52.0.
Results for KU-55933 + PF-04217903 are WM3619: 67.4; COLO 829: 100; WM451Lu: 84.1; COLO 800: 67.0; COLO 792: 97.0.
Results for PF-04217903 + ABT-263 are WM3619: 67.7; COLO 829: 92.2; WM451Lu: 74.7; COLO 800: 26.6; COLO 792: 24.9.
Results for PF-04217903 + CP-690550 are WM3619: 86.9; COLO 829: 113; WM451Lu: 111; COLO 800: 56.8; COLO 792: 84.7.
Results for PF-04217903 + pazopanib are WM3619: 108; COLO 829: 108; WM451Lu: 109; COLO 800: 103; COLO 792: 74.0.
Results for ABT-263 + pazopanib are WM3619: 85.8; COLO 829: 101; WM451Lu: 90.0; COLO 800: 38.1; COLO 792: 5.1.
Results for ABT-263 + sorafenib are WM3619: 76.3; COLO 829: 93.7; WM451Lu: 75.3; COLO 800: 30.1; COLO 792: 10.5.
Results for CP-690550 + sorafenib are WM3619: 111; COLO 829: 141; WM451Lu: 123; COLO 800: 98.3; COLO 792: 128.
Results for midostaurin + CP-690550 are WM3619: 42.6; COLO 829: 69.8; WM451Lu: 52.1; COLO 800: 27.1; COLO 792: 52.5.

Repeated from the top, 3 entries:

| Combination | WM3619 | COLO 829 | WM451Lu | COLO 800 | COLO 792 |
|---|---|---|---|---|---|
| midostaurin + sorafenib | 63.1 | 59.5 | 71.0 | 46.5 | 45.7 |
| sorafenib + KU-55933 | 96.3 | 89.6 | 104 | 102 | 85.3 |
| CP-690550 + SU6656 | 89.3 | 70.8 | 81.3 | 50.0 | 69.7 |